No constants are given. Whether binding was seen depends on the method and setting. Some entries that bind do so weakly or less than the wild type.
Target: p75^NTR in embryonic rat brain lysates (rat) (UniProt P07174)
Experiment: embryonic rat brain lysates; method not given

Amino acid sequences for entries named in this document (tags omitted). Residues count along the entry.
UniProt P07174, residues 30-425: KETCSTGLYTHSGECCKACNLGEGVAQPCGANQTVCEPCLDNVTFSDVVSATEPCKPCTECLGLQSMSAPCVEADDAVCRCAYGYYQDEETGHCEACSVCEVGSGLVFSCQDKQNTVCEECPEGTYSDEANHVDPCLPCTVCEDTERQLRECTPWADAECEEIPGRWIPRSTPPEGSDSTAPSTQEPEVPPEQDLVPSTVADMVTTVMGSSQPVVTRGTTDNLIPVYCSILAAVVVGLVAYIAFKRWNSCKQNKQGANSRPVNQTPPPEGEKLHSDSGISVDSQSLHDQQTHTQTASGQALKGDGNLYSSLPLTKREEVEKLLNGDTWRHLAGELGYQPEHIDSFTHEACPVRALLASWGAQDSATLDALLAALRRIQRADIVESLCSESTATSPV
UniProt D3ZW09, residues 118-1163: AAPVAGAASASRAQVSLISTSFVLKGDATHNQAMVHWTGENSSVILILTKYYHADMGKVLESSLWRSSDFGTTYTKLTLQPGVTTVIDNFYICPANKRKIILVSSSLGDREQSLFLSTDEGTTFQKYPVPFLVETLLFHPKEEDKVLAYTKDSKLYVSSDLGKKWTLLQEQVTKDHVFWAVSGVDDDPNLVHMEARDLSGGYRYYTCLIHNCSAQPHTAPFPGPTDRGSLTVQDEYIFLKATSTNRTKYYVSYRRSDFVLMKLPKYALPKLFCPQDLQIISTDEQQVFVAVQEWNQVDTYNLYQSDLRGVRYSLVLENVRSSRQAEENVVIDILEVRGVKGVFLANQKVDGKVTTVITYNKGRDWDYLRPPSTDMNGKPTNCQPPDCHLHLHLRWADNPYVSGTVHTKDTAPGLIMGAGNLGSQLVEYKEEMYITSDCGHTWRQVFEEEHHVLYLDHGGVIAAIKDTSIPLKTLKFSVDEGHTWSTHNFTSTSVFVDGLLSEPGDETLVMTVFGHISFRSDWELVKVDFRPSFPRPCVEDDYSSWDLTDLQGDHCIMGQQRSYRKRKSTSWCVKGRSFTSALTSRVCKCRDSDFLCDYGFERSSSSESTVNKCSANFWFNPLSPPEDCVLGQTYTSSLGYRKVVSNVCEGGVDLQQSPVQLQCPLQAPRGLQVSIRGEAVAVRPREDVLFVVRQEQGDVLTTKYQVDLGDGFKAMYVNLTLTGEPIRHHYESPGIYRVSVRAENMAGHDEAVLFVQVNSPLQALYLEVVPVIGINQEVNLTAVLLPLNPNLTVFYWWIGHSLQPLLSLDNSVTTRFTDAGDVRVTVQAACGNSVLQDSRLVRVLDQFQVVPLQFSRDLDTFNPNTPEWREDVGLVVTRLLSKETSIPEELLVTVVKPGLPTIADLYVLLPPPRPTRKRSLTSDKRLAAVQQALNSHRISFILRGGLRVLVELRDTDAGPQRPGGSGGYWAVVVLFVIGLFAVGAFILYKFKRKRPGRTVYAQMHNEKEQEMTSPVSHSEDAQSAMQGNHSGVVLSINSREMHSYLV

“SorCS2 in embryonic rat brain lysates (from UniProt D3ZW09 118-1163) (receptor)” was tested. Which binding did it give?
The binding was “binds”.

Reference: patent publication US20130336988A1, “METHODS FOR TREATING EARLY STAGE OR MILD NEUROLOGICAL DISORDERS” (NEW YORK UNIVERSITY, priority 2010, published 2013)
